# Data published in the supplement of paper PMC10689618.
# Some of the results follow. Many values rest on one well or one pass, so single values are uncertain.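 Primary human fetal astrocytes engulfed labelled rat cortical synaptosomes, measured as a red/green ratio corrected for calcein live-cell signal and scaled to the plate median. Toxicity meant calcein falling over 30%; decreased phagocytosis meant below 70% of median above 5 µM.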
# Tested on: Human fetal astrocytes
# Assay: synaptosome phagocytosis (pHrodo/calcein intensity ratio) relative to plate median of data wells; higher = more phagocytosis
# Conditions: 11.11 µM; 24 h
row,Structure (SMILES),synaptosome phagocytosis [%]
1,CN(C)CCc1c[nH]c2ccc(Cn3cncn3)cc12,93.8
2,O=Cc1ccccc1O[C@@H]1O[C@H](CO)[C@@H](O)[C@H](O)[C@H]1O,101
3,CS(=O)(=O)OCCCCOS(C)(=O)=O [GT 41 X 149 Mablin CB 2041 G.T. 41 GT 2041 Mileran Myleran],118
4,C1CCC(C(CC2CCCCN2)C2CCCCC2)CC1 (stereo not drawn),0
5,NCCC(=O)c1ccccc1N,158
6,Nc1ccc(S(=O)(=O)Nc2ncccn2)cc1,108
7,CNc1ccccc1C(=O)N1CCc2c([nH]c3ccccc23)C1=O,51.2
8,CN(C)CCOC(=O)C(c1ccccc1)C1(O)CCCC1 (stereo not drawn),83
9,CC(C)/C(O)=C1/C(=O)O[C@@H](c2ccoc2)[C@]2(C)C(O)[C@@H](O)[C@@]34OC5(C)OC67CC(C)(C(O)[C@]6(O)[C@@H](O)[C@]3(O5)C12)[C@H](CC(=O)O)[C@]74C (stereo partly drawn),77
10,CC1Cc2ccccc2N1NC(=O)c1ccc(Cl)c(S(N)(=O)=O)c1 (stereo not drawn),62.4
11,O=C(/C=C/C=C/c1ccc2c(c1)OCO2)N1CCCCC1,101
12,C1N2CN3CN1CN(C2)C3,102
13,CC1(C)[C@@H](O)CC[C@]2(C)[C@H]3C(=O)C=C4[C@H]5C[C@@](C)(C(=O)O)CC[C@]5(C)CC[C@@]4(C)[C@]3(C)CC[C@@H]12 [18alpha-GLYCYRRHETINIC ACID],84.8
14,COc1ccc([C@H]2Oc3cc(OC)cc(OC)c3C[C@H]2O)cc1,100
15,O=c1[nH]cnc2nc[nH]c12,109
16,CC[C@H]1OC(=O)C[C@@H](O)[C@H](C)[C@@H](O[C@@H]2O[C@H](C)[C@@H](O)[C@H](N(C)C)[C@H]2O)[C@@H](CCN2C[C@H](C)C[C@H](C)C2)C[C@@H](C)C(=O)/C=C/C(C)=C/[C@@H]1CO[C@@H]1O[C@H](C)[C@@H](O)[C@@H](OC)[C@H]1OC,72.1
17,C[C@H]1O[C@@H](O[C@H]2[C@@H](O)C[C@H](O[C@H]3[C@@H](O)C[C@H](O[C@H]4CC[C@@]5(C)[C@H](CC[C@@H]6[C@@H]5C[C@@H](O)[C@]5(C)[C@@H](C7=CC(=O)OC7)CC[C@]65O)C4)O[C@@H]3C)O[C@@H]2C)C[C@H](O)[C@@H]1O,52
18,CCCCOC(=O)c1ccc(O)cc1,129
19,COc1ccc(/C=C/C(=O)O)cc1OC,126
20,Cc1cc(-n2c(=O)[nH]c(=O)n(C)c2=O)ccc1Oc1ccc(SC(F)(F)F)cc1,104

row,Structure (SMILES),synaptosome phagocytosis [%]
1,COc1ccc(-c2cc(=O)c3c(O)c(OC)c(OC)c(OC)c3o2)cc1,98.1
2,COc1ccc2oc3ccccc3c(=O)c2c1,129
3,Cc1cc2nc3c(=O)[nH]c(=O)nc-3n(C[C@H](O)[C@H](O)[C@H](O)CO)c2cc1C,126
4,C#C[C@]1(OC(C)=O)CC[C@H]2[C@@H]3CCC4=C[C@@H](OC(C)=O)CC[C@@H]4[C@H]3CC[C@@]21C,60.3
5,NCCCC(=O)O,93.1
6,"CCCCS(=N)(=O)CCC(N)C(=O)O (racemic) [DL-Buthionine-[S,R]-sulfoximine]",60.5
7,CC(=O)O[C@@H]1CC(=O)[C@@]2(C)C(CC(=O)[C@]3(C)C2CC[C@@]2(C)[C@H](c4ccoc4)OC(=O)C4OC423)C1(C)C (stereo partly drawn),113
8,COc1cc(C(C)=O)cc(OC)c1O,116
9,NCC(O)CC(=O)O (stereo not drawn),90.3
10,CC(=O)O[C@H]1CC[C@@]2(C)C(=CC=C3[C@@H]4CC[C@H]([C@H](C)/C=C/[C@H](C)C(C)C)[C@@]4(C)CC[C@@H]32)C1,120
11,C[C@H](CCC(=O)O)[C@H]1CC[C@H]2[C@@H]3[C@H](O)C[C@@H]4C[C@H](O)CC[C@]4(C)[C@H]3CC[C@]12C,93.8
12,CC(=O)[C@@]1(O)CC[C@H]2[C@@H]3C=C(Cl)C4=CC(=O)[C@@H]5C[C@@H]5[C@]4(C)[C@H]3CC[C@@]21C,82.2
13,COc1cc(-c2cc(=O)c3c(O)c(OC)c(OC)c(OC)c3o2)cc(OC)c1OC,51.6
14,OC[C@H]1O[C@@H](n2cnc3c(NCc4ccco4)ncnc32)[C@H](O)[C@@H]1O,104
15,C=C1C2CC[C@@]3(C)[C@H](c4ccoc4)OC(=O)C[C@]13O[C@H]1CC(=O)C(C)(C)[C@H](C(O)C(=O)OC)[C@@]21C (stereo partly drawn),113
16,CCN(CC)Cc1cc(Nc2ccnc3cc(Cl)ccc23)ccc1O,86.2
17,COc1ccc(-c2cc(=O)c3c(OC)cc(OC)cc3o2)cc1,93.1
18,Cc1cc(=O)n(-c2ccccc2)n1C,131
19,COc1ccc(-c2cc(=O)c3c(O)cc(O)cc3o2)cc1,163

# Same assay, conditions: 22.22 µM; 24 h
row,Structure (SMILES),synaptosome phagocytosis [%]
1,CN(C)CCc1c[nH]c2ccc(Cn3cncn3)cc12,126
2,O=Cc1ccccc1O[C@@H]1O[C@H](CO)[C@@H](O)[C@H](O)[C@H]1O,102
3,CS(=O)(=O)OCCCCOS(C)(=O)=O [GT 41 X 149 Mablin CB 2041 G.T. 41 GT 2041 Mileran Myleran],89.7
4,C1CCC(C(CC2CCCCN2)C2CCCCC2)CC1 (stereo not drawn),11.8
5,NCCC(=O)c1ccccc1N,100
6,Nc1ccc(S(=O)(=O)Nc2ncccn2)cc1,104
7,CNc1ccccc1C(=O)N1CCc2c([nH]c3ccccc23)C1=O,53.9
8,CN(C)CCOC(=O)C(c1ccccc1)C1(O)CCCC1 (stereo not drawn),110
9,CC(C)/C(O)=C1/C(=O)O[C@@H](c2ccoc2)[C@]2(C)C(O)[C@@H](O)[C@@]34OC5(C)OC67CC(C)(C(O)[C@]6(O)[C@@H](O)[C@]3(O5)C12)[C@H](CC(=O)O)[C@]74C (stereo partly drawn),135
10,CC1Cc2ccccc2N1NC(=O)c1ccc(Cl)c(S(N)(=O)=O)c1 (stereo not drawn),75.1
11,O=C(/C=C/C=C/c1ccc2c(c1)OCO2)N1CCCCC1,98.3
12,C1N2CN3CN1CN(C2)C3,81.3
13,CC1(C)[C@@H](O)CC[C@]2(C)[C@H]3C(=O)C=C4[C@H]5C[C@@](C)(C(=O)O)CC[C@]5(C)CC[C@@]4(C)[C@]3(C)CC[C@@H]12 [18alpha-GLYCYRRHETINIC ACID],126
14,COc1ccc([C@H]2Oc3cc(OC)cc(OC)c3C[C@H]2O)cc1,90.8
15,O=c1[nH]cnc2nc[nH]c12,120
16,CC[C@H]1OC(=O)C[C@@H](O)[C@H](C)[C@@H](O[C@@H]2O[C@H](C)[C@@H](O)[C@H](N(C)C)[C@H]2O)[C@@H](CCN2C[C@H](C)C[C@H](C)C2)C[C@@H](C)C(=O)/C=C/C(C)=C/[C@@H]1CO[C@@H]1O[C@H](C)[C@@H](O)[C@@H](OC)[C@H]1OC,118
17,C[C@H]1O[C@@H](O[C@H]2[C@@H](O)C[C@H](O[C@H]3[C@@H](O)C[C@H](O[C@H]4CC[C@@]5(C)[C@H](CC[C@@H]6[C@@H]5C[C@@H](O)[C@]5(C)[C@@H](C7=CC(=O)OC7)CC[C@]65O)C4)O[C@@H]3C)O[C@@H]2C)C[C@H](O)[C@@H]1O,44.4
18,CCCCOC(=O)c1ccc(O)cc1,102
19,COc1ccc(/C=C/C(=O)O)cc1OC,137
20,Cc1cc(-n2c(=O)[nH]c(=O)n(C)c2=O)ccc1Oc1ccc(SC(F)(F)F)cc1,99.8

row,Structure (SMILES),synaptosome phagocytosis [%]
1,COc1ccc(-c2cc(=O)c3c(O)c(OC)c(OC)c(OC)c3o2)cc1,120
2,COc1ccc2oc3ccccc3c(=O)c2c1,102
3,Cc1cc2nc3c(=O)[nH]c(=O)nc-3n(C[C@H](O)[C@H](O)[C@H](O)CO)c2cc1C,126
4,C#C[C@]1(OC(C)=O)CC[C@H]2[C@@H]3CCC4=C[C@@H](OC(C)=O)CC[C@@H]4[C@H]3CC[C@@]21C,70.5
5,NCCCC(=O)O,58.4
6,"CCCCS(=N)(=O)CCC(N)C(=O)O (racemic) [DL-Buthionine-[S,R]-sulfoximine]",137
7,CC(=O)O[C@@H]1CC(=O)[C@@]2(C)C(CC(=O)[C@]3(C)C2CC[C@@]2(C)[C@H](c4ccoc4)OC(=O)C4OC423)C1(C)C (stereo partly drawn),135
8,COc1cc(C(C)=O)cc(OC)c1O,111
9,NCC(O)CC(=O)O (stereo not drawn),64.4
10,CC(=O)O[C@H]1CC[C@@]2(C)C(=CC=C3[C@@H]4CC[C@H]([C@H](C)/C=C/[C@H](C)C(C)C)[C@@]4(C)CC[C@@H]32)C1,68.3
11,C[C@H](CCC(=O)O)[C@H]1CC[C@H]2[C@@H]3[C@H](O)C[C@@H]4C[C@H](O)CC[C@]4(C)[C@H]3CC[C@]12C,107
12,CC(=O)[C@@]1(O)CC[C@H]2[C@@H]3C=C(Cl)C4=CC(=O)[C@@H]5C[C@@H]5[C@]4(C)[C@H]3CC[C@@]21C,112
13,COc1cc(-c2cc(=O)c3c(O)c(OC)c(OC)c(OC)c3o2)cc(OC)c1OC,124
14,OC[C@H]1O[C@@H](n2cnc3c(NCc4ccco4)ncnc32)[C@H](O)[C@@H]1O,76.6
15,C=C1C2CC[C@@]3(C)[C@H](c4ccoc4)OC(=O)C[C@]13O[C@H]1CC(=O)C(C)(C)[C@H](C(O)C(=O)OC)[C@@]21C (stereo partly drawn),106
16,CCN(CC)Cc1cc(Nc2ccnc3cc(Cl)ccc23)ccc1O,76.1
17,COc1ccc(-c2cc(=O)c3c(OC)cc(OC)cc3o2)cc1,87.2
18,Cc1cc(=O)n(-c2ccccc2)n1C,92
19,COc1ccc(-c2cc(=O)c3c(O)cc(O)cc3o2)cc1,102
